Experimental data: PMC7337926
Results are given in words; binding and its absence hold for the method and conditions named. Binding can be weak; no strength is given. For some of these results: Tags and fused reporters may be left off the sequences shown. For some of these results: In cells and extracts the contact can be indirect.

T1: SE fused to the Gal4 DNA binding domain (Arabidopsis thaliana) (UniProt Q9ZVD0)
T1 sequence: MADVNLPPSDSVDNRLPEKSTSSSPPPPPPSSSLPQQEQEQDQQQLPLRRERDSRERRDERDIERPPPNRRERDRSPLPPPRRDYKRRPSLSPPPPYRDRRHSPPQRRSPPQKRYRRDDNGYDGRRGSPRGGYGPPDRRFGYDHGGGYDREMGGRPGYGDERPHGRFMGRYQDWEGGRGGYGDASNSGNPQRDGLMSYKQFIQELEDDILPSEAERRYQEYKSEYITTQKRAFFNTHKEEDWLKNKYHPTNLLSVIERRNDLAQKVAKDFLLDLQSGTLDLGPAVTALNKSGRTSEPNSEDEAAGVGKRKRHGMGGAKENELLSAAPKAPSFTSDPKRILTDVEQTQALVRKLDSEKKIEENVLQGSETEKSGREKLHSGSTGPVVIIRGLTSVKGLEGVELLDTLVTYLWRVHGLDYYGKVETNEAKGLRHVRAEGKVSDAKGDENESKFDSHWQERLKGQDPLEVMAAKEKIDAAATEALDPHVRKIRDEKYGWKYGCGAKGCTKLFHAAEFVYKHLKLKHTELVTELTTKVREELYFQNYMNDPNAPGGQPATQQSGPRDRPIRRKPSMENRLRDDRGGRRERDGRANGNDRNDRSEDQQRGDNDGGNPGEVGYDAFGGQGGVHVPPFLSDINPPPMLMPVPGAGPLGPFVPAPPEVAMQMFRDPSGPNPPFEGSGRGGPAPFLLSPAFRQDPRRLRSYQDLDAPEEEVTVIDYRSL

T2: HEN2 fused to the Gal4 DNA binding domain (Arabidopsis thaliana) (UniProt Q9ZVW2)
T2 sequence: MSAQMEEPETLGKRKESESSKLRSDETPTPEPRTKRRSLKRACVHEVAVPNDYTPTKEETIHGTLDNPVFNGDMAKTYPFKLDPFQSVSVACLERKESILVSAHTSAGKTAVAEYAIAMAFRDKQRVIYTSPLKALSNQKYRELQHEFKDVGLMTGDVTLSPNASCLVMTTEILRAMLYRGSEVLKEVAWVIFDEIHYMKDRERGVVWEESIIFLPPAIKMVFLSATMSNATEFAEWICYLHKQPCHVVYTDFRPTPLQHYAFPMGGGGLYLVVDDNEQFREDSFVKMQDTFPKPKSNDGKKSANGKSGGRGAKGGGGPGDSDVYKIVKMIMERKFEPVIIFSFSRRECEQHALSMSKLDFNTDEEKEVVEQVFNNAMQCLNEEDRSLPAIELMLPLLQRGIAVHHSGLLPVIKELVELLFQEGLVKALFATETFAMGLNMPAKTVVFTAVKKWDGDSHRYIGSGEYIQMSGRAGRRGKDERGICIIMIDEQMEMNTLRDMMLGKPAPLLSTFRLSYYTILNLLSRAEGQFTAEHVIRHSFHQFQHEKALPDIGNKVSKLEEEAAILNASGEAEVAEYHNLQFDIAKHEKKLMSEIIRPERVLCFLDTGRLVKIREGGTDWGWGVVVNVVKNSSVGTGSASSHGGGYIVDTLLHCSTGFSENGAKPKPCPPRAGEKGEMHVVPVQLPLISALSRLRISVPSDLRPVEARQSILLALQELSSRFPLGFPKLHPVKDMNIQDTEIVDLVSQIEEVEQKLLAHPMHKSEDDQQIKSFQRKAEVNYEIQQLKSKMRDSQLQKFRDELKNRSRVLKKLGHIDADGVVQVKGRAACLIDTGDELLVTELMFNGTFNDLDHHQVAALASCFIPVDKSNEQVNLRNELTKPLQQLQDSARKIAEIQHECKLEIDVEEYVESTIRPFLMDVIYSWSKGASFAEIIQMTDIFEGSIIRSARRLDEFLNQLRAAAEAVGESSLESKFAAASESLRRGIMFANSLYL

T3: HEN2-GFP (Arabidopsis thaliana) (UniProt Q9ZVW2)
T3 sequence: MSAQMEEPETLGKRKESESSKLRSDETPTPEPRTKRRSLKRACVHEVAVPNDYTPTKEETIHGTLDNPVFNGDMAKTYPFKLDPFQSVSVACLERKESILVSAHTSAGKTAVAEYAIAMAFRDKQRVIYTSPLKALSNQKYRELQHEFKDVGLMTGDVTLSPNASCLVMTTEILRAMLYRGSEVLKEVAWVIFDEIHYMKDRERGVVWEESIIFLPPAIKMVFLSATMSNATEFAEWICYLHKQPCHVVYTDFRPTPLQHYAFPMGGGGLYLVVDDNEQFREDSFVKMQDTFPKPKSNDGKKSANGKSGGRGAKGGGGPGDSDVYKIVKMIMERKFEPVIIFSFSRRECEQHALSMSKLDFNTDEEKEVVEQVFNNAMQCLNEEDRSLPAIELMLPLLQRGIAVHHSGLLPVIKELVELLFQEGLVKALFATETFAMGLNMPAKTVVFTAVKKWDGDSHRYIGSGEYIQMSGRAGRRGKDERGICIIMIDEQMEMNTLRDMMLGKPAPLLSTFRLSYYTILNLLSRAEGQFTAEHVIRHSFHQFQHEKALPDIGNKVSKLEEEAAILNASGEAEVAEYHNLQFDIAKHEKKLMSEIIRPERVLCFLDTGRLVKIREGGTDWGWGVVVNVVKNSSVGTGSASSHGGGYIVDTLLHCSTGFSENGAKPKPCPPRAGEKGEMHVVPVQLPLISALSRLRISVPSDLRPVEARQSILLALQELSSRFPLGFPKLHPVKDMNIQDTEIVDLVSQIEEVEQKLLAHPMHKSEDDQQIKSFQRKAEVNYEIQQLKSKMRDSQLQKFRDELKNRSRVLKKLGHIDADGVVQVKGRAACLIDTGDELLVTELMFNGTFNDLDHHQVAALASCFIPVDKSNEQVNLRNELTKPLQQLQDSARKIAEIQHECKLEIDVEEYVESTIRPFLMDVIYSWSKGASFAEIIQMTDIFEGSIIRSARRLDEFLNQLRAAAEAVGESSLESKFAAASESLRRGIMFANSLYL

T4: SE-GFP (Arabidopsis thaliana) (UniProt Q9ZVD0)
T4 sequence: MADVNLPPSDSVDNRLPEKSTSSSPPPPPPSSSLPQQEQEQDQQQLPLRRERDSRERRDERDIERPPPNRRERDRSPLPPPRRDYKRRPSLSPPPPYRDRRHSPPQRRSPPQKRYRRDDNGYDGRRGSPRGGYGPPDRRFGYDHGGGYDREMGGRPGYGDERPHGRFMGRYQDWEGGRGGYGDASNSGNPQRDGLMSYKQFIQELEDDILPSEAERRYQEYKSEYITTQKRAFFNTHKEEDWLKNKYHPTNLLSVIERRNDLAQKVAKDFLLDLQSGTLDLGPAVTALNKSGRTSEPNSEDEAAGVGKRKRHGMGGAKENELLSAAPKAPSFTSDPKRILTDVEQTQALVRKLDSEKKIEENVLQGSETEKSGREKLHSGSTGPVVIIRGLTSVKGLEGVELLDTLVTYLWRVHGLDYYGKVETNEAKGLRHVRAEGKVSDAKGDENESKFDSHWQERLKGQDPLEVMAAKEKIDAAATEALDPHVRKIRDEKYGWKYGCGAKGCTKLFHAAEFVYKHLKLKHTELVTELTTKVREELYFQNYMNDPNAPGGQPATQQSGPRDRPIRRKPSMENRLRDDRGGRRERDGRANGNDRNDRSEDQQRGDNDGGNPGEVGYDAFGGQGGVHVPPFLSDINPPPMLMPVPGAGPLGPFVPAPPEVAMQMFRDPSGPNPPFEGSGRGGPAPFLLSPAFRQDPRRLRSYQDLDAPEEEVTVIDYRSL


What was measured:
[1] = molecular target: T1, SE fused to the Gal4 DNA binding domain (Arabidopsis thaliana); experiment: two-hybrid; Matchmaker Gal4 system, S. cerevisiae Y2HGold, 28°C; growth on medium lacking L, T, H, A and on medium with aureobasidin and X-αGal
[2] = molecular target: T2, HEN2 fused to the Gal4 DNA binding domain (Arabidopsis thaliana); experiment: as above
[3] = molecular target: T3, HEN2-GFP (Arabidopsis thaliana); experiment: FRET or BRET; FRET-FLIM in Arabidopsis protoplasts; GFP fusion as donor, RFP fusion as acceptor; fluorescence lifetime of the donor against the PRP39A-RFP control
[4] = molecular target: T4, SE-GFP (Arabidopsis thaliana); experiment: as above
[5] = molecular target: ZCCHC8A-cCFP (Arabidopsis thaliana); experiment: split reporter; BiFC of nVEN-HEN2 and ZCCHC8A-cCFP in Arabidopsis protoplasts

Molecule	binding [1]	binding [2]	binding [3]	binding [4]	binding [5]
ZCCHC8A fused to the Gal4 activation domain (Arabidopsis thaliana)	binds	binds			
RBM7-RFP (Arabidopsis thaliana)			no binding	binds	
ZCCHC8A-RFP (Arabidopsis thaliana)			binds	binds	
nVEN-HEN2 (protein, UniProt Q9ZVW2 1-995) MSAQMEEPETLGKRKESESSKLRSDETPTPEPRTKRRSLKRACVHEVAVPNDYTPTKEETIHGTLDNPVFNGDMAKTYPFKLDPFQSVSVACLERKESILVSAHTSAGKTAVAEYAIAMAFRDKQRVIYTSPLKALSNQKYRELQHEFKDVGLMTGDVTLSPNASCLVMTTEILRAMLYRGSEVLKEVAWVIFDEIHYMKDRERGVVWEESIIFLPPAIKMVFLSATMSNATEFAEWICYLHKQPCHVVYTDFRPTPLQHYAFPMGGGGLYLVVDDNEQFREDSFVKMQDTFPKPKSNDGKKSANGKSGGRGAKGGGGPGDSDVYKIVKMIMERKFEPVIIFSFSRRECEQHALSMSKLDFNTDEEKEVVEQVFNNAMQCLNEEDRSLPAIELMLPLLQRGIAVHHSGLLPVIKELVELLFQEGLVKALFATETFAMGLNMPAKTVVFTAVKKWDGDSHRYIGSGEYIQMSGRAGRRGKDERGICIIMIDEQMEMNTLRDMMLGKPAPLLSTFRLSYYTILNLLSRAEGQFTAEHVIRHSFHQFQHEKALPDIGNKVSKLEEEAAILNASGEAEVAEYHNLQFDIAKHEKKLMSEIIRPERVLCFLDTGRLVKIREGGTDWGWGVVVNVVKNSSVGTGSASSHGGGYIVDTLLHCSTGFSENGAKPKPCPPRAGEKGEMHVVPVQLPLISALSRLRISVPSDLRPVEARQSILLALQELSSRFPLGFPKLHPVKDMNIQDTEIVDLVSQIEEVEQKLLAHPMHKSEDDQQIKSFQRKAEVNYEIQQLKSKMRDSQLQKFRDELKNRSRVLKKLGHIDADGVVQVKGRAACLIDTGDELLVTELMFNGTFNDLDHHQVAALASCFIPVDKSNEQVNLRNELTKPLQQLQDSARKIAEIQHECKLEIDVEEYVESTIRPFLMDVIYSWSKGASFAEIIQMTDIFEGSIIRSARRLDEFLNQLRAAAEAVGESSLESKFAAASESLRRGIMFANSLYL					binds

The remaining lines, values ahead:

binding [1]	binding [2]	binding [3]	binding [4]	binding [5]	Molecule
binds	binds				ZCCHC8B fused to the Gal4 activation domain (Arabidopsis thaliana)
binds	no binding				RBM7 fused to the Gal4 activation domain (Arabidopsis thaliana)
		binds	binds		ZCCHC8B-RFP (Arabidopsis thaliana)
